The results in this text go back to PubChem BioAssay AID1508600 (Functional Genomics Laboratory (NCATS/FGL), 2020).

Hit rate of the full screen: of about 53,000 sequences, about 3,700 (7%) were called active.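 Rule for the calls: active = gene knockdowns whose robust z-score for IL-1 alpha signal is at least 2 or at most -2, so actives lie on both sides; inactive = the rest.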 The list shows a part of the results.

The nature of this experiment: Components of the Cytosolic LPS Sensing Pathway: Gene Identification via Genome-wide siRNA Screen.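 Note: robust z of the log signal after scaling to non-targeting control siRNA wells of the plate.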 Particulars: RAW264.7 macrophages, IL-1a HTRF, actives lie on both sides, screened at 100 nM (by protocol), cells primed 5 h with Pam3CSK4 first. In outline:
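IL-1a HTRF of supernatants after 24 hour LipidA transfection of Pam3CSK4-primed (5 hours) RAW264.7 cells, 48h post-siRNA transfection (100 nM). Scores: percent of plate negative-control median, then log-based robust z-score.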
(In TR-FRET formats the signal depends on donor and acceptor labels being close together.)
Turning to GCAGCAGACAAUUAUGAAUTT against Lypd6, the z-score is inactive: 0.0158. For the sequence GGGCUGACUACCUUGUCAUTT against Mad2l2, the z-score was inactive: -0.216.

On to GCUGUCGAGUAGAUGUCUUTT against Thoc6, for which the z-score is inactive: -0.435. With GGUCAUCUCAGUACUACAATT against Dgat2, the z-score is inactive: 0.251. Then CCAAAGAGCGCAUGGCUCATT against Epn2, with inactive: -0.782; and GGUUCUUAUCACUUGCUGUTT against Arf6, with inactive: 0.838; and GCUGAGGCAAUUUCAACUUTT against Ctla4, with inactive: 0.169. On to GGUAGUGACGAAAAAUAACTT against Pigt, for which the z-score was inactive: -0.677. Regarding GGAGGACUUUGGAUUUAAGTT against Prim1, the z-score is inactive: 1.13. Then CCUCCAGUACCAACAUUAGTT against Olfr299, with inactive: -0.569; and GGAUCAAGCAGAAAGGAGATT against Otc, with inactive: -0.84; and GGAUUCUCUAAUAAAGCGUTT against Pof1b, with inactive: 0.684.

Consider GGCAAGAAACAGGAGAAGATT against Ptn, for which the z-score is inactive: -0.14. Then GGUUUUAGAAGGGAAACAUTT against Ppp2r2c, with inactive: -0.763; and GGACAACCAAAAUGCAUUUTT against Zic3, with inactive: 0.517.

As to GGAAACAGCAUCAUCAUGUTT against Snrpg, the z-score was active: -2.28. Then GGACUUACCUUUAACCAACTT against Slc30a4, with inactive: 0.42; and GGGAUGCUCUGAACAUUGATT against Anxa2, with active: 3.22. Then GCCAACUGAAGAUCCGUGUTT against Pgm5, with inactive: 1.54; and GGUGGUUGUAAGUAAGCUGTT against Lgals3, with inactive: -0.327; and GCUAGGUAUCUAAGGAUAUTT against Fig4, with inactive: -0.579. Consider GGAGUUCUGCAUCUACAACTT against Syngr1, for which the z-score was inactive: 0.0453. Then GGGAAGACAACAAUUCUAUTT against Arf1, with inactive: 1.76; and GGAUGGACUUCUGUAUCACTT against Cdh17, with inactive: 0.97. The same measure for GCUAGAGUCCAUAAACAAUTT against Olfr1148: inactive: -0.0654; for GGACAGCUCUCAUCUGAUGTT against Larp4b: inactive: 0.409.

On to GGCCAAGGAGAGCAUUCGATT against Vps4a, for which the z-score is inactive: -0.769. Then GGCUUUUGUCAAACAGCAUTT against Ins1, with active: -2.9; and CCUGUACUCUACCUCACACTT against Nol4l, with inactive: -1.34.

With GCAAUAAGGUGAAGUCAGATT against Mbd2, the z-score was inactive: -0.834. The same measure for GUACCUCUACUAUUCCUUUTT against Krtap5-2: inactive: -0.13; for GGAAGUAACAUGCUUCUAGTT against Ccdc42: inactive: 0.75; for GGAACUGGGUUCAUCCACATT against Snrpb2: active: -2.02. Then GGCAGACAAGGAUUCCUUGTT against Mrpl38, with inactive: 0.626. Then “GGCUUUUCGUUGUAAAUCATT against 9930111J21Rik2”, with inactive: 0.735; and “GGCAUUUGAGAGACACAGGTT against A930104D05Rik”, with inactive: -1.65. Turning to GGUUGCAUCUCUAGCUCCATT against Krt32, the z-score was inactive: 0.229. The same measure for GGAAAAUGACAGCGAAGAGTT against Helq: inactive: -0.34; for GGAUUCUCCGCACAGUUGGTT against Vps37b: inactive: 0.977. Then CCAUAACGUAAGGCAUAUATT against Ghsr, with inactive: 0.505. For CCCUUUAGAGGAAGUGAUATT against Gatm, the z-score was inactive: -1.82. Then GGGCUGAUGUGGGCUAAAUTT against Tmem38a, with active: 2.47; and GGAAGUGAAUAAAUUCCUUTT against Crppa, with inactive: -1.3. Then GCACAAUGGUGUUAAGUCATT against Ado, with active: 2.3. Then GCACCAAUACAUUUGGACCTT against Nabp1, with inactive: 1.74. Take GAACAGCAGAAUCUCGGCUTT against Cacng6: the z-score was inactive: -0.281. The same measure for GGGUCACUUGGAUUGUGGATT against Tmx2: inactive: -0.0195.

For GGCUCCUACCAAUCUCACUTT against Calcr, the z-score is inactive: -0.548. The same measure for GGUUCUCCAGCAAGUGGAUTT against Mlh3: inactive: 0.0388; for GGCCUGAAGCAGCUUAUCUTT against Chad: inactive: -1.56. The same measure for GGCCAAUGGGUUAUCUGGATT against Shisa5: inactive: -0.0374; for CCGUGGAUUGUGGAAUAAUTT against Xpnpep3: inactive: -1.39; for “GGUUUGGAGGGACGCAAUATT against 2900005J15Rik”: inactive: -0.0611. The same measure for GGUUUACCUUUAUGCAACATT against Tdrd12: inactive: -1.03. On to GGUUCUGGAAGAAGAAAAGTT against Irgq, for which the z-score is inactive: 1.31. Then GCUUACAGAUCAACUGAAGTT against Chst9, with inactive: 0.018. The same measure for GGGCAAUUCCAUGAAGCUGTT against Scn3b: inactive: -1.36. The same measure for GAAGUCUGCCAAAUUAAUGTT against Zfp182: inactive: 0.342; for GGUGGGAAGAUAGAUAAAATT against Mamstr: active: 3.28; for “GCAAUGGACCCAACUCAAGTT against 2810032G03Rik”: inactive: 0.108. As for GGACCAGAAACCGUGAUAATT against Immp2l, the z-score is active: 3.96.

On to CCUGGAACGAAUAUUUGUGTT against Eml6, for which the z-score was inactive: 0.53.

Take GACCUGAAUAAAGACUGUCTT against Cort: the z-score is inactive: 0.697. The same measure for GGCCGAAGACCCUAAUUUATT against Cmtm7: inactive: -0.373. Then GGACUAGAUAUCACUUUUUTT against Oga, with inactive: -0.0184; and CGGAGUGAAACUACUCAUUTT against Ckb, with inactive: -0.773; and GCACUGAUGACGUGCAGAUTT against Rps5, with inactive: 1.24. Then GGCACAAGCAGGAGAUAAATT against Serpinb2, with active: 2.05; and GCUAACAGGUCAUUUAUCCTT against Tmem123, with inactive: -0.245; and GGUAGGACUAACAAUAAAATT against Gpr4, with inactive: -0.0158. As for GGAGAACACCAUCAGGUUUTT against Tnfrsf14, the z-score was inactive: -0.121. The same measure for CGGCUCACUAGGAUUAUACTT against Dnajc5g: inactive: 0.749. The same measure for GCUCAUUCGUCCUCACAGUTT against Olfr312: inactive: -1.11; for GGAACCCUUUUCAAAAGAGTT against Bclaf3: inactive: 0.112. The same measure for GGGAAUCUGGAGUGUCUGATT against Uaca: inactive: 0.358; for GCUGAUAGACUCACAGAGGTT against Midn: inactive: 0.0964. Turning to CCAAGUUACAGGAACAAGUTT against Olfr1504, the z-score is inactive: 0.14. Then GCCAUUGGUACCAUAACAUTT against Tekt3, with inactive: 0.147; and CCCACCUAUGGGCUAUUAUTT against Cdip1, with inactive: -1.18. The same measure for GGCUUGUCGUCCUGGUGUATT against Rprd2: inactive: 0.219; for GGUCAAAACCAUCUACCGCTT against Rab3a: inactive: 0.479.

In the case of GGUAACUCCAUACUAUAAUTT against Pcdhb4, the z-score was inactive: 0.338. In the case of GGAAUCCUUUUCUUUCUAATT against Slc13a1, the z-score was inactive: 0.0492. For the sequence GGAUGGCAUAGUUCUUGGATT against Psmb7, the z-score was inactive: -0.756. Then GCUACUUAAAUACAUCCGCTT against Pdpk1, with inactive: 0.344; and GGAGCCUUUACCAUUGACUTT against Osmr, with inactive: -0.98; and GGAAAAGAAGUUUAAACGGTT against Svs6, with inactive: -0.413.

On to GGUCAACAAGUAUAUCAACTT against Tlcd1, for which the z-score was inactive: 0.226.

With GGAUGUCAUCGAGGAAUACTT against Rps12, the z-score is inactive: -0.0791.

On to GCGGACCACCAUUAUCCUUTT against Polr3gl, for which the z-score is inactive: -0.765. Take GGACAGGUACAGCAUCAACTT against St3gal5: the z-score is inactive: -0.571. The same measure for GGCACACACAAAGUAUUUCTT against Pxdc1: inactive: -1.09. Then GGCUGGAAAGAGACUUUCCTT against Acsm3, with inactive: -0.0815. Then GGACCUAGACGAUGUCAUGTT against Lrrc4b, with inactive: 0.57. For the sequence GCCACAAUGCUAGAAGAGATT against Apex2, the z-score was inactive: -0.0295. As for CCAUCUAUCAACUUCUACATT against Sat1, the z-score is inactive: -0.34. In the case of GGAAGAAGCCUUUCAGCAUTT against Cenpa, the z-score was inactive: -1.39. Regarding AGUGCGACAAGGAGGUGUATT against Crip1, the z-score was inactive: 1.17. The same measure for GGAGAUCAUCUUUUCUCAUTT against Slc50a1: inactive: -0.668; for GGAGGUCCCAGUCAUUAUCTT against Gdap1l1: inactive: -0.97; for CGGAAUUUCCACAGCUGUATT against Gde1: inactive: 0.0422. Then GGCUUCAGACCCUCAAAAGTT against Spef2, with inactive: -0.00203; and GGAUCUUGGGUUGAUAUUUTT against Acsl4, with inactive: -0.524; and GGAAGAAUUACAAAGGAUATT against Cnot4, with inactive: -0.974.

On to GGAACUUAUCCUUCAUGGATT against Olfr714, for which the z-score was inactive: 1.63. Then GCCUUACAAUUUGUUCUACTT against Dsc1, with inactive: 1; and GGCAGGUGUGGCUUUCUUCTT against Gpsm1, with inactive: -0.0254.
